PubChem BioAssay (EPA / NIEHS)
“And” between values parts separate entries of the source, which are not always exact repeats. Equal values may be shown once. Inconclusive results, whose numbers are uncertain, are shown with a selection of clear calls. Where the call is inconclusive, the potency comes from a doubtful curve fit. The source made the active and inactive calls. The calls were made as follows: active = hit-call score of the fitted dose curve at least 0.9, where 1 is the maximum; inconclusive = response in the unintended direction; inactive = score below 0.9.

By UniProt entry, the sequences of proteins in these tests, tags left out.
UniProt P10276, whole entry, looked up: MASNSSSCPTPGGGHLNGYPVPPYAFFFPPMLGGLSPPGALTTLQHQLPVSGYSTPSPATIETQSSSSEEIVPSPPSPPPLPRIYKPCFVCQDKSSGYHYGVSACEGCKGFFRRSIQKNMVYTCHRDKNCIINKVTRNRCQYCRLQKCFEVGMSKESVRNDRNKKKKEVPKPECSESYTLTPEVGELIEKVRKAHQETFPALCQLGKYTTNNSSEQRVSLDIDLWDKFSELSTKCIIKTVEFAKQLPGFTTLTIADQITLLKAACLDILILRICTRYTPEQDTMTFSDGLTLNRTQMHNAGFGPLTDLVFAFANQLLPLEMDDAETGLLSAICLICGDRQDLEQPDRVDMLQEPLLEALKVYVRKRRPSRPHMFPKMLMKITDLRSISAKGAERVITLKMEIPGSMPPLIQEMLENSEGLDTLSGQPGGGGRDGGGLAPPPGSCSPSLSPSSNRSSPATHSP

target: Retinoic acid receptor alpha (Homo sapiens) (UniProt P10276); assay: ATG_RARa_TRANS: Attagene TRANS-FACTORIAL HepG2 Assay for human Retinoic Acid Receptor alpha (RARa) (AID 2283005);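 as to AC50: potency for increased reporter signal meaning RARa activation over DMSO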
Procedure: ATG_TRANS is a cell-based, multiplexed-readout assay that uses HepG2, a human liver cell line, with measurements taken at 24 hours after chemical dosing in a 24-well plate.ATG_RARa_TRANS is one of 30 assay component(s) measured or calculated from the ATG_TRANS assay. It is designed to make measurements of mRNA induction, a form of inducible reporter, as detected with fluorescence intensity signals by Reverse transcription polymerase chain reaction (RT-PCR) and Capillary electrophoresis technology.Data from the assay component ATG_RARa_TRANS was analyzed into 1 assay endpoint. This assay endpoint, ATG_RARa_TRANS, was analyzed in the positive analysis fitting direction relative to DMSO as the negative control and baseline of activity. Using a type of inducible reporter, measures of mRNA for gain-of-signal activity can be used to understand the reporter gene at the transcription factor-level as they relate to the gene RARA. Furthermore, this assay endpoint can be referred to as a primary readout, because this assay has produced multiple assay endpoints where this one serves a reporter gene function. To generalize the intended target to other relatable targets, this assay endpoint is annotated to the nuclear receptor intended target family, where the subfamily is non-steroidal.
Human liver HepG2 cells are transiently transfected with multiple reporter transcription units (MRTUs) in 6-well plates using FuGene 6 reagent (Roche; 3 ml FuGene/1 mg DNA). The MRTU constructs are regulated by a cis-regulating element (promoter). […] A major difference between the CIS and TRANS system is that in CIS activities of endogenous TFs are measured, whereas the TRANS assay evaluates changes in activities of exogenous, chimeric NR-Gal4 proteins. […] At the end of 24 hour incubation, total RNA was isolated using TriZol reagent (Invitrogen). The isolated RNA is then reverse-transcribed using oligo(dT) primer and Mo-MLV reverse transcriptase (Invitrogen) with DNAse I (Ambion) treatment for 30 min. The one-tenth of the produced cDNA was amplified by PCR using Taq DNA polymerase (Invitrogen) and two reporter sequence-specific primers. The PCR products were fluorescently labeled by primer extension with 6-arboxyfluorescein (6-FAM) 5'-labeled reporter sequence-specific primer (2 min at 95 C, 20 s at 68 C and 10 min at 72 C) and these products were digested with 5U of HpaI (New England Biolabs) for 2h at 37 C. The fragments were purified using Qiaquick PCR columns (Qiagen), analyzed on an ABI 3130xL genetic analyzer (Applied Biosystems) with peak positions identified by using a set of X-rhodamine (ROX)-labeled MapMarker1000 molecular weight standards (BioVentures). The raw capillary electrophoresis data was processed using Attagraph software (Attagene).

Structure (SMILES) | outcome | AC50
CC(C)CCOCCC(C)C | inactive | –
Nc1ccc(C(=O)OCCCOC(=O)c2ccc(N)cc2)cc1 | – | inconclusive: 14.8 µM
CCCCC/C=C\CCC=O | – | inconclusive: 100 µM
Cn1c([N+](=O)[O-])cnc1COC(N)=O | inactive | –
CC(C)c1ccc(C=O)cc1 | – | inconclusive: 39 µM
CNC(=S)N(C)C | inactive | –
NC(=O)NNC(N)=O | inactive | –
C/C=C\C/C=C/CCCCCCCCOC(C)=O | – | inconclusive: 5.51 µM
CCc1ccc2c(c1)C(=O)c1ccccc1C2=O | – | inconclusive: 2.96 µM
CCCC(=O)OC/C=C(\C)CCC=C(C)C | – | inconclusive: 120 µM
O=C(Cl)C(F)(F)C(F)(F)C(F)(F)C(F)(F)C(F)(F)C(F)(F)C(F)(F)F | – | inconclusive: 156 µM
CCCCCCCCCCCCCCCC[N+](C)(C)CC | – | active: 17.8 µM
O=P(O)(O)CCC(F)(F)C(F)(F)C(F)(F)C(F)(F)C(F)(F)C(F)(F)F | – | inconclusive: 150 µM
O=S(=O)(O)C(F)(F)C(F)(F)C(F)(F)C(F)(F)C(F)(F)C(F)(F)C(F)(F)C(F)(F)C(F)(F)C(F)(F)F | inactive | –

Arranged by SMILES length (largest number first): three of the compounds above.
Structure (SMILES) | outcome | AC50
CCc1ccc2c(c1)C(=O)c1ccccc1C2=O | – | inconclusive: 2.96 µM
CCCCCCCCCCCCCCCC[N+](C)(C)CC | – | active: 17.8 µM
CNC(=S)N(C)C | inactive | –

Continued.

Structure (SMILES) | outcome | AC50
CC(C)CC(=O)O | – | inconclusive: 100 µM
Nc1ccc(S(=O)(=O)Nc2nccs2)cc1 | – | inconclusive: 34.7 µM and inconclusive: 100 µM
c1ccc2c(c1)Cc1ccccc1-2 | – | inconclusive: 100 µM
O=c1cc(-c2ccc(O)cc2)oc2cc(O)cc(O)c12 | – | inconclusive: 0.129 µM
O=c1n(CC2CO2)c(=O)n(CC2CO2)c(=O)n1CC1CO1 (stereo not given) | – | inconclusive: 19.8 µM
Cc1cc(CCN2CCN(c3nsc4ccccc34)CC2)cc2c1NC(=O)CC2(C)C | – | inconclusive: 11 µM
CC(C)C(=O)c1ccccc1 | inactive | –
CCCCOCCOCCOCCO | – | inconclusive: 57 µM
FC(F)(F)C(F)(F)C(F)(F)C(F)(F)C(F)(F)C(F)(F)CC1CO1 (stereo not given) | inactive | –
N#Cc1ccccc1O | inactive | –
Oc1cccc2c(O)cccc12 | – | inconclusive: 161 µM
O=C1CCCCCCCCCCC(=O)OCCO1 | inactive | –
CCCCCCCCOC(=O)c1ccc(O)cc1 | inactive | –
CCOC(OCC)OCC | inactive | –
NCCN1CCNCC1 | – | inconclusive: 100 µM
